Measurements as given in ChEMBL document CHEMBL4316593 (Eur J Med Chem, 2019).
The source gives many values for each of these; only a part stands here.

Experiments:
Assay type in all cases: cell-based
Conditions in all cases: U-87MG ATCC
[1] = Inhibition of RTK/PI3K/AKT/mTOR signaling in human U87 cells assessed as down regulation of CEP85L gene expression at cytotoxic IC50 measured after 48 hrs relative to control
[2] = Inhibition of RTK/PI3K/AKT/mTOR signaling in human U87 cells assessed as down regulation of MIS18A gene expression at cytotoxic IC50 measured after 48 hrs relative to control
[3] = Inhibition of RTK/PI3K/AKT/mTOR signaling in human U87 cells assessed as down regulation of ZNF669 gene expression at cytotoxic IC50 measured after 48 hrs relative to control
[4] = Inhibition of RTK/PI3K/AKT/mTOR signaling in human U87 cells assessed as down regulation of TFIP11 gene expression at cytotoxic IC50 measured after 48 hrs relative to control
[5] = Inhibition of RTK/PI3K/AKT/mTOR signaling in human U87 cells assessed as down regulation of MED13 gene expression at cytotoxic IC50 measured after 48 hrs relative to control
[6] = Inhibition of RTK/PI3K/AKT/mTOR signaling in human U87 cells assessed as down regulation of TSPAN13 gene expression at cytotoxic IC50 measured after 48 hrs relative to control
[7] = Inhibition of RTK/PI3K/AKT/mTOR signaling in human U87 cells assessed as up regulation of PWWP domain containing 2B gene expression at cytotoxic IC50 measured after 48 hrs relative to control
[8] = Inhibition of RTK/PI3K/AKT/mTOR signaling in human U87 cells assessed as down regulation of PLEC gene expression at cytotoxic IC50 measured after 48 hrs relative to control
[9] = Inhibition of RTK/PI3K/AKT/mTOR signaling in human U87 cells assessed as up regulation of TSC22 domain family member 3 gene expression at cytotoxic IC50 measured after 48 hrs relative to control
[10] = Inhibition of RTK/PI3K/AKT/mTOR signaling in human U87 cells assessed as up regulation of NACC2 gene expression at cytotoxic IC50 measured after 48 hrs relative to control
[11] = Inhibition of RTK/PI3K/AKT/mTOR signaling in human U87 cells assessed as up regulation of BEST1 gene expression at cytotoxic IC50 measured after 48 hrs relative to control
[12] = Inhibition of RTK/PI3K/AKT/mTOR signaling in human U87 cells assessed as down regulation of PPP1R15A gene expression at cytotoxic IC50 measured after 48 hrs relative to control
[13] = Inhibition of RTK/PI3K/AKT/mTOR signaling in human U87 cells assessed as down regulation of HNRNPM gene expression at cytotoxic IC50 measured after 48 hrs relative to control
[14] = Inhibition of RTK/PI3K/AKT/mTOR signaling in human U87 cells assessed as up regulation of laminin subunit gamma 3 gene expression at cytotoxic IC50 measured after 48 hrs relative to control
[15] = Inhibition of RTK/PI3K/AKT/mTOR signaling in human U87 cells assessed as down regulation of IDI1 gene expression at cytotoxic IC50 measured after 48 hrs relative to control
[16] = Inhibition of RTK/PI3K/AKT/mTOR signaling in human U87 cells assessed as down regulation of SMPD1 gene expression at cytotoxic IC50 measured after 48 hrs relative to control
[17] = Inhibition of RTK/PI3K/AKT/mTOR signaling in human U87 cells assessed as up regulation of KDM1A gene expression at cytotoxic IC50 measured after 48 hrs relative to control
[18] = Inhibition of RTK/PI3K/AKT/mTOR signaling in human U87 cells assessed as up regulation of discoidin, CUB and LCCL domain containing 2 gene expression at cytotoxic IC50 measured after 48 hrs relative to control
[19] = Inhibition of RTK/PI3K/AKT/mTOR signaling in human U87 cells assessed as up regulation of Rho/Rac guanine nucleotide exchange factor 2 gene expression at cytotoxic IC50 measured after 48 hrs relative to control
[20] = Inhibition of RTK/PI3K/AKT/mTOR signaling in human U87 cells assessed as up regulation of PDGFA gene expression at cytotoxic IC50 measured after 48 hrs relative to control
[21] = Inhibition of RTK/PI3K/AKT/mTOR signaling in human U87 cells assessed as down regulation of KLHL2 gene expression at cytotoxic IC50 measured after 48 hrs relative to control
[22] = Inhibition of RTK/PI3K/AKT/mTOR signaling in human U87 cells assessed as up regulation of TLC domain containing 2 gene expression at cytotoxic IC50 measured after 48 hrs relative to control
[23] = Inhibition of RTK/PI3K/AKT/mTOR signaling in human U87 cells assessed as up regulation of ACTN1 gene expression at cytotoxic IC50 measured after 48 hrs relative to control
[24] = Inhibition of RTK/PI3K/AKT/mTOR signaling in human U87 cells assessed as up regulation of zinc finger protein 37A gene expression at cytotoxic IC50 measured after 48 hrs relative to control
[25] = Inhibition of RTK/PI3K/AKT/mTOR signaling in human U87 cells assessed as up regulation of RAB4A gene expression at cytotoxic IC50 measured after 48 hrs relative to control
[26] = Inhibition of RTK/PI3K/AKT/mTOR signaling in human U87 cells assessed as down regulation of TADA2B gene expression at cytotoxic IC50 measured after 48 hrs relative to control
[27] = Inhibition of RTK/PI3K/AKT/mTOR signaling in human U87 cells assessed as down regulation of RAB11FIP3 gene expression at cytotoxic IC50 measured after 48 hrs relative to control
[28] = Inhibition of RTK/PI3K/AKT/mTOR signaling in human U87 cells assessed as up regulation of PLEKHB1 gene expression at cytotoxic IC50 measured after 48 hrs relative to control
[29] = Inhibition of RTK/PI3K/AKT/mTOR signaling in human U87 cells assessed as up regulation of BHLHA15 gene expression at cytotoxic IC50 measured after 48 hrs relative to control
[30] = Inhibition of RTK/PI3K/AKT/mTOR signaling in human U87 cells assessed as up regulation of MKX gene expression at cytotoxic IC50 measured after 48 hrs relative to control
[31] = Inhibition of RTK/PI3K/AKT/mTOR signaling in human U87 cells assessed as up regulation of SLC1A5 gene expression at cytotoxic IC50 measured after 48 hrs relative to control
[32] = Inhibition of RTK/PI3K/AKT/mTOR signaling in human U87 cells assessed as up regulation of linker for activation of T-cells family member 2 gene expression at cytotoxic IC50 measured after 48 hrs relative to control

## CC(=O)C(=NNc1ccccc1C#N)C(C)=O
[1]
  log2FC: -1.16
[2]
  log2FC: -0.992
[3]
  log2FC: -1.48
[4]
  log2FC: -0.862
[5]
  log2FC: -0.525
[6]
  log2FC: -1.29
[7]
  log2FC: 1.18
[8]
  log2FC: -0.487
[9]
  log2FC: 1.57
[10]
  log2FC: 0.574
[11]
  log2FC: 1.66
[12]
  log2FC: -1.89
[13]
  log2FC: -0.344
[14]
  log2FC: 1.36
[15]
  log2FC: -1.2
[16]
  log2FC: -3.11
[17]
  log2FC: 0.382
[18]
  log2FC: 1.3
[19]
  log2FC: 1.2
[20]
  log2FC: 2.29
[21]
  log2FC: -0.652
[22]
  log2FC: 0.974
[23]
  log2FC: 0.503
[24]
  log2FC: 1.07
[25]
  log2FC: 0.485
[26]
  log2FC: -0.57
[27]
  log2FC: -0.94
[28]
  log2FC: 1.91
[29]
  log2FC: 3.83
[30]
  log2FC: 1.75
[31]
  log2FC: 0.615
[32]
  log2FC: 0.941
